Measured values as given in article PMC9947222.
Construct, isoform or probe ends are uncertain for at least one entry. Where cells or extracts were used, other partners may take part. For some of these results: A negative result means that nothing was seen under these conditions.

Experiments:
[1] = system: B1-8hi B cell receptor (NP-specific IgM/IgD, lambda1 light chain) (mouse (B1-8hi knock-in)); assay: flow cytometry and confocal microscopy; details: B1-8hi B cells, no hapten; LNA and 2'-OMe: Q1 mC+CmG+TmCmCmT+GmA+GmCmC; Q2 mCmA+CmA+GmTmG+GmA+CmGmG; Q3 mG+GmC+TmCmAmCmC+GmA+TmC; Q4 mGmA+TmC+GmGmAmC+TmG+TmG; 5'-NH2-C6; protein on the cell surface; label: AF647 on Q2; synthetic backbone
[2] = system: B1-8hi B cell receptor (NP-specific IgM/IgD, lambda1 light chain) (mouse (B1-8hi knock-in)); assay: flow cytometry; details: B1-8hi B cells, LNA/2'-OMe as N0, protein on the cell surface

Sequence: CCGTCCTGAGCC / CACAGTGGACGG / GGCTCACCGATC / GATCGGACTGTG [HJ-0xNP/NIP (naked HJ)]
- binding result [1]: no binding

Sequence: CCGTCCTGAGCC / CACAGTGGACGG / GGCTCACCGATC / GATCGGACTGTG [HJ-1xNIP]
- binding result ([2]; via NIP, lost near 2:1 HJ:BCR, one 5' amino-C6 NIP hapten (carrier strand not stated), label: AF647 on Q2 (Atto488 for FIDA), synthetic …): binds

Sequence: CCGTCCTGAGCC / CACAGTGGACGG / GGCTCACCGATC / GATCGGACTGTG [HJ-1xNP]
- binding result ([2]; via NP, lost near 2:1 HJ:BCR, one 5' amino-C6 NP hapten (carrier strand not stated), label: AF647 on Q2, synthetic backbone): binds

Sequence: CCGTCCTGAGCC / CACAGTGGACGG / GGCTCACCGATC / GATCGGACTGTG [HJ-2xNIP]
- binding result ([2]; via NIP, two 5' amino-C6 NIP haptens (carrier strands not stated), label: AF647 on Q2, synthetic backbone): binds

Sequence: CCGTCCTGAGCC / CACAGTGGACGG / GGCTCACCGATC / GATCGGACTGTG [HJ-2xNP]
- binding result ([2]; via NP, two 5' amino-C6 NP haptens (carrier strands not stated), label: AF647 on Q2, synthetic backbone): binds

Sequence: CCGTCCTGAGCC / CACAGTGGACGG / GGCTCACCGATC / GATCGGACTGTG [HJ-3xNIP]
- binding result ([2]; via NIP, 5' amino-C6 NIP on Q1, Q3 and Q4, label: AF647 on Q2 (Atto488 for FIDA), synthetic backbone): binds

Sequence: CCGTCCTGAGCC / CACAGTGGACGG / GGCTCACCGATC / GATCGGACTGTG [HJ-3xNP]
- binding result ([2]; via NP, 5' amino-C6 NP on Q1, Q3 and Q4, label: AF647 on Q2, synthetic backbone): binds
